Several values for one entry are separate records, joined by “and”; a condition that tells them apart may be missing. Equal values may be shown once. The source gives many values for each of these; only a part stands here.
Target: T1, HSL (Rattus norvegicus, UniProt P15304)
T1 construct: The partially purified HSL can be stored at −70° C. for 4 to 6 weeks; from tissue; host or cells: rat epididymal fat cells (male Wistar rats)
T1 sequence (P15304 1-768 isoform P15304-2): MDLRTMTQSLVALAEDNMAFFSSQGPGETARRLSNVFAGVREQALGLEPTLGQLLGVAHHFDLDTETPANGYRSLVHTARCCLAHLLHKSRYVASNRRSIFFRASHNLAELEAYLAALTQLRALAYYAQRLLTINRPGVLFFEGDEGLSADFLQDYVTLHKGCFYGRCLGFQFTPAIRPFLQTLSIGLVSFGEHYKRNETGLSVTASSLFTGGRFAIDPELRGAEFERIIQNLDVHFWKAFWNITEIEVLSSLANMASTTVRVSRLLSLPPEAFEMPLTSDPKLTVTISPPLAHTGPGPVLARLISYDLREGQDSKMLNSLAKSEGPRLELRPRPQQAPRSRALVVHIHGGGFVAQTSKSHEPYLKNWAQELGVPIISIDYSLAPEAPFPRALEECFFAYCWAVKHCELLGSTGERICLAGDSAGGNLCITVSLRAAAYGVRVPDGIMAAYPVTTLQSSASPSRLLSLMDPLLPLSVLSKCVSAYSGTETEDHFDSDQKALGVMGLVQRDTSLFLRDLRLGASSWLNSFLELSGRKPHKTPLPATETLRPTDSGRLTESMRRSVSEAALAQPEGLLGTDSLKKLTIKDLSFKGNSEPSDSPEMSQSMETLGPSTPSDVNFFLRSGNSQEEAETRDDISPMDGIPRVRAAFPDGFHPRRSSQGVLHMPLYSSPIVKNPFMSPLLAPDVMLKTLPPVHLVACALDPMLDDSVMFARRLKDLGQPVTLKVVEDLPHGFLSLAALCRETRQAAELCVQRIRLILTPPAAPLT
Assay: Indirect NAG assay (extinction increase at 481 nm)
Type: biochemical
Experimental: A typical reaction is carried out at 30° C. for 60 min, for example in 1.5 ml Eppendorf vessels or 96-hole plates. […] 180 μl of the substrate solution (20 μg/ml of phosphatidylcholine, 10 μg/ml of phosphatidylinositol, 50 μg/ml of NAG in assay buffer) are added. After a preincubation for 15 min at 30° C., 20 μl of HSL in assay buffer are pipetted in and the extinction is immediately measured (see above) at 481 nm in a cuvette photometer (0.5 ml cuvette) or microtiter plate reader. After a certain incubation time, which is variable and depends on the chosen enzyme concentration and can be between 2 and 240 minutes, in this case incubation at 30° C. for 60 min, the extinction is measured again. The increase in the extinction in the yellow region, in this case at 481 nm, is a measure of the enzyme activity.
Isolated rat fat cells are obtained from epididymal fatty tissue from untreated male rats (Wistar, 220-250 g) by collagenase treatment according to published processes. The fat cells from 10 rats are washed three times by flotation with 50 ml each of homogenization buffer ([…], pH 7.4, 0.25 M sucrose, 1 mM ethylenediamine-N,N,N′,N′-tetraacetic acid (EDTA), 1 mM dithiothreitol (DTT), 10 μg/ml of leupeptin, 10 μg/ml of antipain, 20 μg/ml of pepstatin) and finally taken up in 10 ml of homogenization buffer. The fat cells are homogenized in a Teflon-in-glass homogenizer (Braun-Melsungen) by 10 strokes at 1500 rpm and 15° C. The homogenizate is centrifuged (Sorvall SM24 tubes, 5000 rpm, 10 min, 4° C.). The […] between the overlying fatty layer and the pellet is removed and the centrifugation is repeated. The […] resulting from this is centrifuged again (Sorvall SM24 tubes, 20,000 rpm, 45 min, 4° C.). […] After incubation for 60 min at 4° C. (shake at intervals of 15 min), the batch is centrifuged (Sorvall SM24 tubes, 3000 rpm, 10 min, 4° C.). The supernatant is brought to pH 5.2 by addition of glacial acetic acid and incubated at 4° C. for 30 min. […] The suspension is dialyzed overnight at 4° C. against 25 mM TRIS/HCl, pH 7.4, 50% glycerol, 1 mM DTT, and 10 μg/ml of leupeptin, pepstatin, and antipain and then applied to a hydroxylapatite column (0.1 g per 1 ml of suspension, equilibrated with 10 mM potassium phosphate, pH 7.0, 30% glycerol, 1 mM DTT). The column is washed with four volumes of equilibration buffer at a flow rate of 20 to 30 ml/h. The HSL is eluted with a volume of equilibration buffer which contains 0.5 M potassium phosphate, then dialyzed (see above) and concentrated 5 to 10 times by ultrafiltration (Amicon Diaflo PM 10 filter) at 4° C. The partially purified HSL can be stored at −70° C. for 4 to 6 weeks.
6 mg of phosphatidylcholine and 6 mg of phosphatidylinositol are dissolved in 1 ml of chloroform each. 10 mg of NAG are dissolved in 1 ml of chloroform. […] The chloroform (225 μl total volume) is completely removed by overblowing with a stream of N2. The dried substrate can be stored at 4° C. for up to three days. For the preparation of the phospholipid vesicles/micelles having intercalated NAG (on the test day), the dried substrate is taken up in 20 ml of assay buffer (25 mM TRIS/HCl, pH 7.4; 150 mM NaCl) and two ultrasonic treatments with an ultrasonic probe (Branson Sonifier type 11, standard microtip): 1st treatment setting 2, 2×1 min, in between in each case 1 min on ice; 2nd treatment setting 4, 2×1 min, in between in each case 1 min on ice. […] Before use as a substrate (within the next 2 h), the solution is additionally incubated on ice for 15 min.
The assay is carried out at 30° C. for 60 min in 1.5 ml Eppendorf vessels or 96-hole plates.

Which results are given for `O=C(CCCCCCCCCCCNc1ccc([N+](=O)[O-])c2nonc12)OCC(O)CO` (stereo not shown) [Compound (3)]?
Increase in the absorption at 481 nm (96-hole microtiter plate, 200 μl, 1 min, Tests 1-8, listed as NAG): 50 arb. units and 48 arb. units and 61 arb. units and 49 arb. units and 56 arb. units and 52 arb. units and 57 arb. units; Increase in the absorption at 481 nm (96-hole microtiter plate, 200 μl, 2 min, Tests 1-8, listed as NAG): 97 arb. units and 89 arb. units and 107 arb. units and 95 arb. units and 101 arb. units and 116 arb. units and 93 arb. units; Increase in the absorption at 481 nm (96-hole microtiter plate, 200 μl, 5 min, Tests 1-8, listed as NAG): 238 arb. units and 269 arb. units and 278 arb. units and 243 arb. units and 277 arb. units and 248 arb. units and 235 arb. units and 241 arb. units; Increase in the absorption at 481 nm (96-hole microtiter plate, 200 μl, 10 min, Tests 1-8, listed as NAG): 487 arb. units and 534 arb. units and 462 arb. units and 458 arb. units and 552 arb. units and 508 arb. units and 488 arb. units and 460 arb. units; Increase in the absorption at 481 nm (96-hole microtiter plate, 200 μl, 15 min, Tests 1-8, listed as NAG): 713 arb. units and 768 arb. units and 709 arb. units and 712 arb. units and 789 arb. units and 780 arb. units and 735 arb. units and 718 arb. units; Increase in the absorption at 481 nm (96-hole microtiter plate, 200 μl, 20 min, Tests 1-8, listed as NAG): 978 arb. units and 1013 arb. units and 967 arb. units and 979 arb. units and 1097 arb. units and 1121 arb. units and 1045 arb. units and 966 arb. units; Increase in the absorption at 481 nm (96-hole microtiter plate, 200 μl, 30 min, Tests 1-8, listed as NAG): 1413 arb. units and 1579 arb. units and 1625 arb. units and 1690 arb. units and 1523 arb. units and 1688 arb. units and 1452 arb. units and 1410 arb. units; Increase in the absorption at 481 nm (96-hole microtiter plate, 200 μl, 45 min, Tests 1-8, listed as NAG): 2045 arb. units and 2134 arb. units and 2239 arb. units and 2106 arb. units and 2238 arb. units and 1967 arb. units and 2145 arb. units; Increase in the absorption at 481 nm (96-hole microtiter plate, 200 μl, 60 min, Tests 1-8, listed as NAG): 2367 arb. units and 2541 arb. units and 2658 arb. units and 2755 arb. units and 2534 arb. units and 2608 arb. units and 2536 arb. units and 2690 arb. units; Increase in the absorption at 481 nm (96-hole microtiter plate, 200 μl, 75 min, Tests 1-8, listed as NAG): 2611 arb. units and 2894 arb. units and 2973 arb. units and 3023 arb. units and 2871 arb. units and 2879 arb. units and 2982 arb. units and 2895 arb. units; Increase in the absorption at 481 nm (96-hole microtiter plate, 200 μl, 90 min, Tests 1-8, listed as NAG): 2985 arb. units and 3244 arb. units and 3310 arb. units and 3355 arb. units and 3260 arb. units and 3122 arb. units and 3240 arb. units and 3125 arb. units; Increase in the absorption at 481 nm (96-hole microtiter plate, 200 μl, 120 min, Tests 1-8, listed as NAG): 3127 arb. units and 3469 arb. units and 3577 arb. units and 3601 arb. units and 3489 arb. units and 3378 arb. units and 3507 arb. units and 3320 arb. units; Increase in the absorption at 481 nm (HSL, enzyme 10 arb. units, 60 min, NAG 0.05 mg/ml): 143 ± 18 arb. units; Increase in the absorption at 481 nm (HSL, enzyme 20 arb. units, 60 min, NAG 0.05 mg/ml): 321 ± 28 arb. units; Increase in the absorption at 481 nm (HSL, enzyme 50 arb. units, 60 min, NAG 0.05 mg/ml): 744 ± 58 arb. units; Increase in the absorption at 481 nm (HSL, enzyme 75 arb. units, 60 min, NAG 0.05 mg/ml): 1023 ± 95 arb. units; Increase in the absorption at 481 nm (HSL, enzyme 100 arb. units, 60 min, NAG 0.05 mg/ml): 1287 ± 165 arb. units; Increase in the absorption at 481 nm (HSL, enzyme 150 arb. units, 60 min, NAG 0.05 mg/ml): 2106 ± 183 arb. units; Increase in the absorption at 481 nm (HSL, enzyme 200 arb. units, 60 min, NAG 0.05 mg/ml): 2697 ± 231 arb. units; Increase in the absorption at 481 nm (HSL, enzyme 250 arb. units, 60 min, NAG 0.05 mg/ml): 3321 ± 349 arb. units; Increase in the absorption at 481 nm (HSL, enzyme 300 arb. units, 60 min, NAG 0.05 mg/ml): 3855 ± 288 arb. units; Increase in the absorption at 481 nm (HSL, enzyme 400 arb. units, 60 min, NAG 0.05 mg/ml): 4427 ± 402 arb. units; Increase in the absorption at 481 nm (PI/PC 0.025 mg/ml, PI:PC 1:1, HSL 20 μg, 60 min, NAG 0.05 mg/ml): 1879 ± 205 arb. units; Increase in the absorption at 481 nm (PI/PC 0.025 mg/ml, PI:PC 1:3, HSL 20 μg, 60 min, NAG 0.05 mg/ml): 1158 ± 121 arb. units; Increase in the absorption at 481 nm (PI/PC 0.025 mg/ml, PI:PC 3:1, HSL 20 μg, 60 min, NAG 0.05 mg/ml): 2980 ± 254 arb. units; Increase in the absorption at 481 nm (PI/PC 0.0375 mg/ml, PI:PC 1:1, HSL 20 μg, 60 min, NAG 0.05 mg/ml): 1649 ± 170 arb. units; Increase in the absorption at 481 nm (PI/PC 0.0375 mg/ml, PI:PC 1:3, HSL 20 μg, 60 min, NAG 0.05 mg/ml): 1230 ± 105 arb. units; Increase in the absorption at 481 nm (PI/PC 0.0375 mg/ml, PI:PC 3:1, HSL 20 μg, 60 min, NAG 0.05 mg/ml): 3144 ± 277 arb. units
